Measured values published in patent publication US20180362473A1, “BIOORTHOGONAL METHODS AND COMPOUNDS” (The University Court of the University of Edinburgh, priority 2013, published 2018).
“Also recorded” adds a separate entry of the source.

Tests used:
[1] = Cell-free palladium mediated deprotection of prodrugs (HPLC/LCMS); conditions: 37° C.; for N-depropargylation by Pd^0-resins (FIG. 17): 100 μM drug precursor, 1 mg/mL Pd^0-resins in PBS
Description: FIG. 17 illustrates the palladium-mediated reactions of the drug precursors with Pd(0) under biocompatible conditions to form either 5FU, 1, or floxuridine, 8, in the table it is compiled the conversion percentages and resulting products after incubating each of the drug precursors (100 μM) with 1 mg/mL of Pd^0 -resins in PBS for 24 h at 37° C. (Thermomixer, shaker speed: 1,400 rpm), Values were calculated by HPLC using an UV detector.
To recreate a biocompatible scenario, prodrug-into-drug conversion was carried out at 37° C. in an isotonic solution with a physiologic pH. All-5FU, Pro-5FU and Bri-5FU (500 μM) were dissolved in phosphate buffered saline (“PBS”) (0.5 ml) with 0.5 mg of Pd^0 resin and shaken at 1400 rpm and 37° C. in a Thermomixer. Reaction crudes were monitored at 0 h, 7h, 24 h and 48 h using analytical HPLC (Agilent) or LCMS system (Agilent). Eluent A: water and formic acid (0.1%); eluent B: acetonitrile, formic acid (0.1%): A/B=95:5 to 5:95 in 3 min, isocratic 1 min, 5:95 to 95:5 in 1 min, isocratic 1 min with the UV detector at 280 nm.
For All-5FU and Bn-5FU, the prodrug (100 μM) and P^0-resin (1 mg/mL, [Pd^0]˜266 μM) were dispersed in 0.1% (vlv) DM80 in PBS and incubated for 48 h at 37° C.

[2] = Confirmation of heterogeneous catalytic mechanism (HPLC)
Description: N-depropargylation of Pro-5FU using sub-stoichiometric amounts of Pd^0 confirmed the catalytic nature of the reaction with the reaction proceeding to completion in 72 h.

[3] = 100 μM prodrug, Pd^0-resin 1 mg/mL, 0.1% DMSO in PBS, 48 h

C=CCn1cc(F)c(=O)[nH]c1=O [All-5FU]
Pd^0-mediated conversion of prodrug into 5FU [1, 3]: no significant reactivity; also recorded: relatively low levels of 5FU

C#CCn1c(=O)[nH]cc(F)c1=O [Compound 6]
N-depropargylation by Pd^0-resins (FIG. 17) ([1]; 24 h): N-depropargylation at the 3-position

C#CCn1cc(F)c(=O)n(CC#C)c1=O [Compound 7, 1,3-dipropargyl-5-fluorouracil]
N-depropargylation by Pd^0-resins (FIG. 17) ([1]; 24 h): N-depropargylation at both positions

C#CCn1cc(F)c(=O)[nH]c1=O [Pro-5FU]
Pd^0-mediated conversion of prodrug into 5FU ([1]; 500 μM prodrug, 0.5 mg Pd^0 resin in PBS (0.5 ml), 1400 rpm, 24 h): completely disappeared
conversion in micro-filtered PBS pre-incubated with Pd^0-resins ([2]; Pro-5FU 100 μM, 48 h incubation, solids removed (0.22 μm)): unreacted Pro-5FU as major mixture component
time for N-depropargylation to proceed to completion ([2]; sub-stoichiometric amounts of Pd^0): 72 h

C#CCn1c(=O)c(F)cn([C@H]2CC(O)[C@@H](CO)O2)c1=O (some centres unmarked) [Compound 11, 3-propergyl-floxuridine]
N-depropargylation by Pd^0-resins (FIG. 17) ([1]; 24 h): effected

O=c1[nH]c(=O)n(Cc2ccccc2)cc1F [Bn-5FU]
Pd^0-mediated conversion of prodrug into 5FU [1, 3]: relatively low levels of 5FU
